PubChem BioAssay AID1259308 – NCATS | 2017

Test: 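Genes whose loss raises luciferase production in HEK293 cells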 (primary screen)
Cell system: human HEK293 embryonic kidney cells stably expressing firefly luciferase (HEK-CMV-Luc2-Hygro)
Knock-down reagent: single siRNA against human genes, 0.8 pmol siRNA per well
Time to read-out: 72 h
Read-out: 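Luciferase light (ONE-Glo) measured on one replicate plate set and viability (CellTiter-Glo) on the other, scaled to a negative control siRNA, with robust z-scores and luciferase per cell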
Reading the numbers: total luciferase, z-score and total luciferase, % of control: higher = more reporter protein produced
Call rule: 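An siRNA counts as active if its total luciferase robust z-score exceeds 3; genes with two or more such siRNAs out of three were retested with fresh siRNAs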
Calls: active = raised luciferase; inactive = no rise
The deposit covers about 59,000 reagents; below is an unselected part. Over the whole deposit, about 1,510 (2.6%) are marked active. 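Calls use total luciferase alone and ignore viability, so some active siRNAs may act by altering cell number.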 Entries without a mark were called inactive. Reagents against one gene are numbered here. Not all columns of the deposit are shown. No sequences are given here.

With knock-down of HBD #1, the screen gave total luciferase, z-score 0.31; total luciferase, % of control 88.
HBD #2 scored total luciferase, z-score -1.77; total luciferase, % of control 46.7.
Silencing of HBD #3 resulted in: total luciferase, z-score 3.51 (active); total luciferase, % of control 152.
After knock-down of N4BP1 #1, the record shows total luciferase, z-score 0.264; total luciferase, % of control 87.1.
For N4BP1 #2, the entry reads total luciferase, z-score 0.358; total luciferase, % of control 89.
With knock-down of N4BP1 #3, the record shows total luciferase, z-score -0.66; total luciferase, % of control 68.8.
For SOWAHC #1 the deposit lists total luciferase, z-score -0.747; total luciferase, % of control 67.
Knock-down of SOWAHC #2 came out at: total luciferase, z-score -0.0318; total luciferase, % of control 81.3.
Depletion of SOWAHC #3 resulted in: total luciferase, z-score 0.00233; total luciferase, % of control 81.9.
Knock-down of ZMYM4 #1 gave: total luciferase, z-score -0.989; total luciferase, % of control 62.2.
ZMYM4 #2 showed total luciferase, z-score 0.681; total luciferase, % of control 95.4.
After knock-down of ZMYM4 #3 the results were total luciferase, z-score -0.754; total luciferase, % of control 66.9.
PRSS16 #1 showed total luciferase, z-score -0.738; total luciferase, % of control 67.2.
With knock-down of PRSS16 #2, the screen gave total luciferase, z-score 1.05; total luciferase, % of control 103.
Knock-down of PRSS16 #3 gave: total luciferase, z-score -0.259; total luciferase, % of control 76.7.
KRTAP19-4 #1 showed total luciferase, z-score 0.0669; total luciferase, % of control 83.2.
After knock-down of KRTAP19-4 #2, the screen gave total luciferase, z-score -0.813; total luciferase, % of control 65.7.
After knock-down of KRTAP19-4 #3, the record shows total luciferase, z-score -0.79; total luciferase, % of control 66.2.
SCMH1 #1 gave total luciferase, z-score 1.61; total luciferase, % of control 114.
After knock-down of SCMH1 #2, the record shows total luciferase, z-score 1.76; total luciferase, % of control 117.
Knock-down of SCMH1 #3 gave: total luciferase, z-score -0.36; total luciferase, % of control 74.7.
Against ST7L #1, the entry reads total luciferase, z-score -0.683; total luciferase, % of control 68.3.
ST7L #2 gave total luciferase, z-score 0.673; total luciferase, % of control 95.3.
With knock-down of ST7L #3, the screen gave total luciferase, z-score -1.19; total luciferase, % of control 58.3.
SPATA32 #1 showed total luciferase, z-score 3.74 (active); total luciferase, % of control 156.
For SPATA32 #2 the deposit lists total luciferase, z-score 0.875; total luciferase, % of control 99.3.
Silencing of SPATA32 #3 gave: total luciferase, z-score 1.1; total luciferase, % of control 104.
Knock-down of C11orf52 #1 gave: total luciferase, z-score 0.732; total luciferase, % of control 96.5.
Silencing of C11orf52 #2 resulted in: total luciferase, z-score 0.61; total luciferase, % of control 94.
After knock-down of C11orf52 #3, the record shows total luciferase, z-score -0.504; total luciferase, % of control 71.9.
For TUBB3 #1, the values are total luciferase, z-score 2.96; total luciferase, % of control 141.
Knock-down of TUBB3 #2 resulted in: total luciferase, z-score 0.0306; total luciferase, % of control 82.5.
After knock-down of TUBB3 #3, the screen gave total luciferase, z-score 0.315; total luciferase, % of control 88.2.
